Results are given in words; binding and its absence hold for the method and conditions named. Some entries that bind do so weakly or less than the wild type. Where a sequence is shown, tags or fusion partners need not be part of it.
T1: baboon EL (vascular endothelial lipase) with C2 tag (baboon)
T1 sequence: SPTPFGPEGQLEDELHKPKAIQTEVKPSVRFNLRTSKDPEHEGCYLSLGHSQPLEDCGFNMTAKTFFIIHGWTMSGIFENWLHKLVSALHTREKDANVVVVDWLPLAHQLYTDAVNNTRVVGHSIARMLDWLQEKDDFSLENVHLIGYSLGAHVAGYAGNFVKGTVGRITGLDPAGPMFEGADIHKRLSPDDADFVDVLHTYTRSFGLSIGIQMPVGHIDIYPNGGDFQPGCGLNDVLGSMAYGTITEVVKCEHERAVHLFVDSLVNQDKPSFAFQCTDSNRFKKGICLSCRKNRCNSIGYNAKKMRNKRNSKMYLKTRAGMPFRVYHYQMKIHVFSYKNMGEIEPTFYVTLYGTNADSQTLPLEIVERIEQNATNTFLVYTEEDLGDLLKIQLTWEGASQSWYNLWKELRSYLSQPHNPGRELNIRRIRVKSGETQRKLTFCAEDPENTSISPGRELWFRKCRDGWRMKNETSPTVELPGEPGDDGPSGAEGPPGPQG

T2: human [1-305]-mouse chimeric EL with C2 tag (human; mouse) (UniProt Q9WVG5)
T2 sequence: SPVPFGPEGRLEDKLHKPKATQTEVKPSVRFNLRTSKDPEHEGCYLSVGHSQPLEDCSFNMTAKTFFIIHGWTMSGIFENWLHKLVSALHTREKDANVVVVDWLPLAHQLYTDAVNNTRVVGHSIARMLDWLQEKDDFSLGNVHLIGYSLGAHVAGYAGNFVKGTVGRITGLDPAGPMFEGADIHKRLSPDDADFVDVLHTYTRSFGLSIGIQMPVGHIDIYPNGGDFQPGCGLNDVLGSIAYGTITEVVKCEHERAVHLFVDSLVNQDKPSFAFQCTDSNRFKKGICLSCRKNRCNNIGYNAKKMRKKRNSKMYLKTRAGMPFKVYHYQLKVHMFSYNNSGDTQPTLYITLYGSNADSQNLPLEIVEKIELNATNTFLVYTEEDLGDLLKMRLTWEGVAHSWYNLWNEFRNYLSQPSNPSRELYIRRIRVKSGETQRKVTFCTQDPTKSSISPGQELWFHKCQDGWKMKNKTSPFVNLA

T3: human [202-500]-mouse chimeric EL with C2 tag (mouse; human) (UniProt Q9WVG5)
T3 sequence: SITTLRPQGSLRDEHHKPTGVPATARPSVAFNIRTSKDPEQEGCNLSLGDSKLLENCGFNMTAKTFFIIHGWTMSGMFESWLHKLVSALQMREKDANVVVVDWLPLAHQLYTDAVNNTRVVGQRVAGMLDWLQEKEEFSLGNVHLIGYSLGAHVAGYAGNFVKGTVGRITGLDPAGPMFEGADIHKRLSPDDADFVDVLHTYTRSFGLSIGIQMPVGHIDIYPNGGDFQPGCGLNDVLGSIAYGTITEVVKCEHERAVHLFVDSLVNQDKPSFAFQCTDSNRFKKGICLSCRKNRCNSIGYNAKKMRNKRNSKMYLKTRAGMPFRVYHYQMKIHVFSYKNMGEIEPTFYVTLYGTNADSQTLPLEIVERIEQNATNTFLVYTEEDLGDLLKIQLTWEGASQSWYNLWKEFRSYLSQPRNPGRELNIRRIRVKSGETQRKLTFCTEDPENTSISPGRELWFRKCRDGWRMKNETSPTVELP


Experiments:
[1] = target: T1, baboon EL (vascular endothelial lipase) with C2 tag (baboon); experiment: screening ELISA: hybridoma antibody on anti-mouse IgG-Fc plate, baboon EL heparin extract, anti-C2-tag detection
[2] = target: T1, baboon EL (vascular endothelial lipase) with C2 tag (baboon); experiment: sandwich ELISA: antibody captured on anti-mouse IgG-Fc plate, EL heparin extract added, detected by anti-C2-tag antibody
[3] = target: T1, baboon EL (vascular endothelial lipase) with C2 tag (baboon); experiment: ELISA: antibody captured on anti-mouse IgG-Fc plate, C2-tagged EL heparin extract added, anti-C2-tag detection, A450 (Example 8)
[4] = target: T2, human [1-305]-mouse chimeric EL with C2 tag (human; mouse); experiment: sandwich ELISA: antibody captured on anti-mouse IgG-Fc plate, EL heparin extract added, detected by anti-C2-tag antibody
[5] = target: T2, human [1-305]-mouse chimeric EL with C2 tag (human; mouse); experiment: ELISA: antibody captured on anti-mouse IgG-Fc plate, C2-tagged EL heparin extract added, anti-C2-tag detection, A450 (Example 8)
[6] = target: T1, baboon EL (vascular endothelial lipase) with C2 tag (baboon); experiment: ELISA as in FIG. 3A-3K (A450 against antibody concentration; Example 8 format, not described for 16F6 in the text)
[7] = target: T2, human [1-305]-mouse chimeric EL with C2 tag (human; mouse); experiment: as above
[8] = target: T3, human [202-500]-mouse chimeric EL with C2 tag (mouse; human); experiment: sandwich ELISA: antibody captured on anti-mouse IgG-Fc plate, EL heparin extract added, detected by anti-C2-tag antibody
[9] = target: T3, human [202-500]-mouse chimeric EL with C2 tag (mouse; human); experiment: ELISA: antibody captured on anti-mouse IgG-Fc plate, C2-tagged EL heparin extract added, anti-C2-tag detection, A450 (Example 8)

Binder | binding [1] | binding [2] | binding [3] | binding [4] | binding [5] | binding [6] | binding [7] | binding [8] | binding [9]
14E1 antibody (antibody, V domains shown) VH: QVQLQQSGAELVKPGASVRLSCKASGYTFTKYTIHWVKQRSGQGLEWIGWFYPGSDSIKYNEKFKDKATLTADKSSRTVYMELSRLTSEDSAVYFCARHEEYTNSLAYWGQGTLVTVSA VL: DIQMTQTTSSLSASLGDRVTISCRASQDISNYLNWYQQQPDGTVKLLIYYTSRLHSGVPSRFSGSGSGTDYSLTISNLEQEDIATYFCQQGYTLPWTFGGGTNLEIK | binds | binds | binds | binds | binds |  |  |  | 
13B3 antibody (antibody, V domains shown) VH: EVQLQQSGPELLKPGASVKISCKASGYTFTEYTMHWVKQSHGKSLEWIGSINPYYGGTSYNEKFKDKATLTVDKSSNTAYMEFRSLTSEDCAVYYCARYGNYVGYFDYWGQGTTLTVSS VL: ENVLTQSPAIMSASLGEKVTMSCRASSSVHYMYWYQQKSDASPKLWIYYTSNLAPGVPDRFSGSGSGNSYSLTISSMEGEDAATYYCQQFTSSPYTFGGGTKLEIK | binds | binds | binds |  |  |  |  |  | 
14A1 antibody (antibody, V domains shown) VH: QIQLVQSGPELKKPGETVKISCKASGYTFTNYGMNWVKQAPGKGLKWMGWINTYSGVPTYADDFKGRFAFSLETSASTAYLQINNFKNEDTATYFCARFSYYGRHYFDYWGQGTALTASS VL: DIVLTQSPASLAVSLGQRATISCKASQSVDYDGDSYMNWYQQKPGQPPKLLIYAASNLKSGIPARFSGSGSGTDFTLNIHPVEEEDAATYYCQQTTDDPPWTFGGGTKLEIK | binds | binds | binds |  |  |  |  |  | 
7D4 antibody (antibody, V domains shown) VH: QIQLVQSGPELKKPGETVKISCKASGYTFTNYGMNWVKQAPGKDLKWMGWINTYSGVPTYADDFKGRFAFSLETSASTAYLQINNLKNEDTATYFCARFSYYGRHYFDYWGQGTTLTVSS VL: DIVLTQSPASLAVSLGQRATISCKASQSVDYDGDSYMNWYQQKPGQPPQLLIYAASNLGSGIPARFSGSGSGTDFTLNIHPVEEEDAATYYCHQSTDDPPWTFGGGTKLEIK | binds | binds | binds |  |  |  |  |  | 

Other lines, results leading:

binding [1] | binding [2] | binding [3] | binding [4] | binding [5] | binding [6] | binding [7] | binding [8] | binding [9] | Binder
binds | binds | binds |  |  |  |  |  |  | 23H8 antibody (antibody, V domains shown) VH: EVQLQQSGPELLKPGASVKISCKASGYTFTDNTIHWVKQSHGKSLEWIGHINPYYGGTNNNEKFKDKATLTVDKSSSTAYMELRSLTSEDSAIYYCARKGIYYSSPFDYWGQGTTLTVSS VL: DIQMTQTTSSLSASLGDRVTISCRASQDINNYLNWYQQKPDGTVKLLISYTSKLHSGVPSRFSGSGSGTDYSLTISNLEREDFATYFCQQGNTLPFTFGSGTNLEIK
binds | binds | binds | binds | binds |  |  |  |  | 16B3 antibody (antibody, V domains shown) VH: DVKLVESGGGLVQPGGSLKLSCTASGFTFSGYTMSWVRQTPEKRLELVAEISFARDRAFYPDTVKGRFTISRDNAKNTLYLQMSSLKSEDTAMYYCTRLGGRNHDYWYFDVWGTGTTVTVSS VL: DIVLTQSPTSLAVSPGQRATISCRASESVEYYGTSLMQWYQQKPGQRPQLLIYAASNVESGVPARFSGSGSGTDFSLNIHPVEEDDIAVYFCQQSWKVPFTFGSGTKLEIK
binds | binds | binds |  |  |  |  |  |  | 55A1 antibody (antibody, V domains shown) VH: QIHLVQSGPELKKPGETVKISCKASGYTFTNYGMNWVKQAPGKGLKWMGWINTYSGVPTYAGDFKGRFAFSLETSASTAYLQINNLKNEDTATYFCARRGYYGRRYFDVWGTGTTVTVSS VL: DIVLTQSPASLAVSLGQRATISCKASQSVDYDVDSYMHWYQQKPGQPPKLLIYAASNLASGIPARFSGGGSGTDFTLNIHPVEEEDVATYYCQQTIEDPPTFGGGTKLEIK
 |  |  |  |  | binds | binds |  |  | 16F6 antibody (antibody, V domains shown) VH: QVQLQQSGAELMKPGASVKISCKATGYTFSTYWIAWVKQRPGHGLEWIGEILPGSAKTKYNKKFKGKATFTADTSSNTAYMQLSSLTSEDSAVYYCAVYDYGADYWGQGTSVTVSS VL: DIVMTQSHKFMSTSVGDRVSITCKASQDVYTAVAWYQQKPGQSPKLLIYSASYRFTGVPDRFTGSGAGTEFTFTINSVQAEDLAVYYCQQHYSIPRTFGGGTKLEIK
binds | binds | binds |  |  |  |  |  |  | 53A11 antibody (antibody, V domains shown) VH: EVQLQQSGPELLKPGASVKISCKASGYTFTDYTMHWVKQSHGKSLEWIGGINPYYGGTTYNEKFKDKATLTVDKSSSTAYMELRSLTSEDSAVYYCAKGDYYGGSYNYWGQGTTLTVSS VL: DIVLTQSLATLSVTPGDSVSLSCRASQDISNSLHWYQQKSHESPRLLIKYASQSISGIPSRFSGSGSGTDFTLSINSVETEDFGMYFCQQSNSWPYTFGGGTKLEIK
binds | binds | binds |  |  |  |  | binds | binds | 19E7 antibody (antibody, V domains shown) VH: QVQLQQPGSVLVRPGASVKLSCKASGYTFTTYWMHWVKQRPGQGLEWIGEIHPYSGNNNNNEKFKGKATLTVDTSSSTAYVDLSRLTSEDSAVYYCARYDSNYVFAYWGQGTLVTVSA VL: QIVLTQSPAIMSASPGEGVTITCSASSSVSYMHWFQQKPGTSPKLWIYSTSNLASGVPARFSGSGSGTSYSLTISRMEAEDAATYYCQQRDSYLTFGSGTKLEVK
